# Measurements published in the supplement of paper PMC5407854, “Inhibitor of ppGalNAc-T3-mediated O-glycosylation blocks cancer cell invasiveness and lowers FGF23 levels” (eLife, 2017).
# This is one part of the list. Most entries show no effect beyond the scatter of the controls.
# System: ppGalNAc-T2 sensor
# Assay: T2 sensor activation Q score (MG/GFP ratio z-score vs DMSO controls) (SD units); higher = more sensor activation (inhibition of ppGalNAc-T2 glycosylation)
# Conditions: HEK293 sensor cells; 10 µM; 6 h
# Procedure: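 Cells were treated with compound at 10 uM for 6 h, then MG/GFP ratio was read by flow cytometry (10,000 cells per well, duplicate wells). Q = (R - R_neg)/SD_neg relative to DMSO vehicle controls; the signal rises when the glycosyltransferase is inhibited.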
row,SMILES,T2 sensor activation Q score
1,CN1CCN(C(=O)CN(c2ccccc2F)S(C)(=O)=O)CC1,-0.585
2,CC(C)c1ccc(NC(=O)c2ccc(Cl)cc2)cc1,-0.32
3,COc1ccc(CCC(C)Nc2ccc(F)cc2)cc1 (stereo not given),2.17
4,CN(C)c1ccc(-c2ccncc2)cc1,-0.835
5,CCOc1ccc2nc(C)sc2c1,-1.17
6,O=C1CC(=O)N(c2cccc(Cl)c2)N1,0.76
7,CCOC(=O)N1CCN(Cc2cccc(F)c2)CC1,0.42
8,Cc1ccc2occ(CN3CCN(c4ccccc4F)CC3)c(=O)c2c1,0.785
9,CCN(CC)C(=O)C1CCCN(Cc2cccc(Cl)c2)C1 (stereo not given),-0.275
10,Cc1cc(C)c(NS(=O)(=O)Cc2ccccc2)c(C)c1,-0.87
11,CC(=O)C1=C(O)C(=O)N(CCO)C1c1ccc(C)cc1 (stereo not given),0.31
12,CN1CCN(C/C=C/c2ccccc2[N+](=O)[O-])CC1,-0.83
13,CCCCOc1ccc(NC(=O)c2ccc(F)cc2)cc1,-0.655
14,Cc1ccc(C(C)C)c(OCC(=O)NN)c1,0.135
15,O=C(NCCCCc1ccccc1)c1ccc(Br)cc1,-1.14
16,c1ccc(CNc2ncnc3nc[nH]c23)cc1,0.325
17,CCOc1ccc(CN2CCN(c3ccccc3OCC)CC2)cc1,-0.78
18,O=C(CCCOc1ccc(Cl)cc1Cl)N1CCOCC1,-0.57
19,CCN(CC)C(=O)C1CCCN(Cc2ccc(Cl)cc2)C1 (stereo not given),1.27
20,O=C(C(c1ccccc1)c1ccccc1)N1CCOCC1,-0.615

# Another view of part of the listing above.
row	SMILES	T2 sensor activation Q score
2	CC(C)c1ccc(NC(=O)c2ccc(Cl)cc2)cc1	-0.32
10	Cc1cc(C)c(NS(=O)(=O)Cc2ccccc2)c(C)c1	-0.87

# Later entries.

row,SMILES,T2 sensor activation Q score
1,Cc1ccc(O)c(C(=O)CC(=O)c2cccc(F)c2)c1,0.15
2,OC(CN1CCOCC1)Cn1c2ccccc2c2ccccc21 (stereo not given),0.475
3,COc1ccccc1C(=O)Nc1cccc(C)c1C,-0.71
4,CCSc1nnc(-c2ccccc2Cl)o1,0.66
5,COc1cc(CN2CCN(C/C=C/c3ccccc3)CC2)cc(OC)c1OC,0.005
6,COc1ccccc1CNC(=O)c1ccccc1OC,0.4
7,CC(=O)C(=C(C)O)c1nc2ccccc2[nH]1,-0.83
8,COc1cccc(CN2CCSCC2)c1,-0.08
9,COc1ccc(OCC(=O)NCCc2ccccc2)cc1,1.43
10,Fc1cccc(CN2CCc3c([nH]c4ccccc34)C2)c1,-0.875
11,CN(Cc1ccccc1)Cc1ccccc1,0.04
12,Cc1cccc(N2C(=O)CC(N3CCOCC3)C2=O)c1 (stereo not given),-0.505
13,CCN(C(=O)C(C)Oc1ccccc1)c1ccccc1C (stereo not given),-0.035
14,CC(=O)Nc1ccc(OCc2ccccc2)cc1,0.32
15,NC(=O)C(=O)Nc1ccc(Cl)cc1,-0.96
16,O=C(O)C1CCN(c2nc(-c3ccc(Cl)cc3)cs2)CC1,-1.42
17,CC(=O)Nc1ccc(S(=O)(=O)N2CCCCC2)cc1,-1.83
18,O=[N+]([O-])c1ccc(CN2CCN(Cc3ccccc3)CC2)o1,1.25
19,CCn1c(=N)n(CCO)c2ccccc21,-0.155
20,Oc1ccccc1-c1nc(-c2ccccc2)no1,-0.7
